From paper PMC11996887
These are yes or no findings as the source states them, for the method shown. In cells and extracts the contact can be indirect. Binding can be weak; no strength is given.

Target: T1, PGLYRP2, full-length expression construct (human) (UniProt Q96PD5)
T1 sequence: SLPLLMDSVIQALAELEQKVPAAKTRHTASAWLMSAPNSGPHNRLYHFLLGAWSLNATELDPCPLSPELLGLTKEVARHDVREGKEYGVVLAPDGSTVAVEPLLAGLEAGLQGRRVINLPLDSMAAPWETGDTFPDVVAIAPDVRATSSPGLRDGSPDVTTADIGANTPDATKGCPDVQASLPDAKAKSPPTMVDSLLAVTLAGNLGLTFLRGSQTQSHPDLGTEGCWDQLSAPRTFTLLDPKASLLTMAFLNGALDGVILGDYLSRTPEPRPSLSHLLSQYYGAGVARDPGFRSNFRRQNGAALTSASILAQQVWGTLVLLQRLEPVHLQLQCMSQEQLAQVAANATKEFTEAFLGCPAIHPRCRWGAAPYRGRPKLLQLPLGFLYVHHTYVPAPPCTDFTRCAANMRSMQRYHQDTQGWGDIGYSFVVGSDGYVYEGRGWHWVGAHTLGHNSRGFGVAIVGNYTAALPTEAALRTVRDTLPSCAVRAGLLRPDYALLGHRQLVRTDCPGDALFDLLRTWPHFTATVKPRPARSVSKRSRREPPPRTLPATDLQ
Experiment: pull-down; FLAG pull-down of HBV proteins with PGLYRP2 (full-length and truncated constructs); details only in Supplemental Figure 4B-D

HBs (hepatitis B virus surface protein) (from UniProt P03138)
binding: binds
